Measured values from article PMC10844298.
Results are given in words; binding and its absence hold for the method and conditions named. Binding seen in cells or lysates may run through a third protein. Some results given as binding are weak or reduced against the parent protein; the word gives no strength.

Chains of the proteins cited; added tags and fusions are not shown.
UniProt P56962: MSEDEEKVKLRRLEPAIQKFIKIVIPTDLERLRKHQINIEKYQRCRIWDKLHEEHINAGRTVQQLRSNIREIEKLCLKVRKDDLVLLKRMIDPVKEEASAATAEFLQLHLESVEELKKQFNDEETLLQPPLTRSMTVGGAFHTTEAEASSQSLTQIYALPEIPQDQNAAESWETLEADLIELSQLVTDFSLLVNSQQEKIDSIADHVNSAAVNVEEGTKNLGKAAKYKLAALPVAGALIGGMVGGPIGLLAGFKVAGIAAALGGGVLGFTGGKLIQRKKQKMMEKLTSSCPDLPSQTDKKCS
UniProt Q13177: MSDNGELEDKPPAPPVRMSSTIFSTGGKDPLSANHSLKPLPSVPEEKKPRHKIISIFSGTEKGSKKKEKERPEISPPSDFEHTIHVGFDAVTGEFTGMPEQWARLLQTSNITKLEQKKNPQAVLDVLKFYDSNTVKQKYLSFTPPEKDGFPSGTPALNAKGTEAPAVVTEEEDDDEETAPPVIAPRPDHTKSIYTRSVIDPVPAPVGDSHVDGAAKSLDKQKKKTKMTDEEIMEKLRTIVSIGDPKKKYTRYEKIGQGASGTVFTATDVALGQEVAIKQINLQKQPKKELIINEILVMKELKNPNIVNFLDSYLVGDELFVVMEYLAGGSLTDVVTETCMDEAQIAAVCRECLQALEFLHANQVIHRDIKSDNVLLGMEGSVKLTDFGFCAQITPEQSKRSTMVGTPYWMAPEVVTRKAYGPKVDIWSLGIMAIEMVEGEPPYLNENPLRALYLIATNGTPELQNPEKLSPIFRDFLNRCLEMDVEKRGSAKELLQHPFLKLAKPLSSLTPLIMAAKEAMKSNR
UniProt Q13153: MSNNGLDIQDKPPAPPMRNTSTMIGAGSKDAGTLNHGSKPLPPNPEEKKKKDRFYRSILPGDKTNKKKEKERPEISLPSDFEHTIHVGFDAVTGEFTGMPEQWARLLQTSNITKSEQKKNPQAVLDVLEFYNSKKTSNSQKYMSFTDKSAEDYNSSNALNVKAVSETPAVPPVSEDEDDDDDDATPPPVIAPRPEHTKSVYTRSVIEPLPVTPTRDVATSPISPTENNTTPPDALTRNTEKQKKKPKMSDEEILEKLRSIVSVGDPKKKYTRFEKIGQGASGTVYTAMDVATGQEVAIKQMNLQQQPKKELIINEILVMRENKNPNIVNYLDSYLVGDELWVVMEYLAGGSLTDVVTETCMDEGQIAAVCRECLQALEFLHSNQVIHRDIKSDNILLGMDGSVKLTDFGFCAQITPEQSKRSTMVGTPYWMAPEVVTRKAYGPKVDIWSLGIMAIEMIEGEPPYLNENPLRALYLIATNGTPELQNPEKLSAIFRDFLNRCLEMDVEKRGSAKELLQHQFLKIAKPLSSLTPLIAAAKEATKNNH

Target: GFP-STX17 (human) (UniProt P56962)
Assay: co-IP; lysate of MDA-MB-231 cells expressing GFP or GFP-STX17 incubated with GFP-coated beads at 4 °C for 2 h; lysis buffer with NaCl, glycerine, Tris-HCl pH 7.4, 0.5% Triton X-100; washed 5 times with lysis buffer containing 1% NP40; western blotting

Row | Substance | binding
1 | P21-activated kinase 2 (PAK2) (from UniProt Q13177 1-524) | binds
2 | PAK1 (from UniProt Q13153 1-545) | no binding
